These are yes or no findings as the source states them, for the method shown. Binding seen in cells or lysates may run through a third protein. Some results given as binding are weak or reduced against the parent protein; the word gives no strength. For some of these results: Where a sequence is shown, tags or fusion partners need not be part of it.

By UniProt entry, the sequences of proteins in these tests, tags left out.
UniProt Q9H9Q2: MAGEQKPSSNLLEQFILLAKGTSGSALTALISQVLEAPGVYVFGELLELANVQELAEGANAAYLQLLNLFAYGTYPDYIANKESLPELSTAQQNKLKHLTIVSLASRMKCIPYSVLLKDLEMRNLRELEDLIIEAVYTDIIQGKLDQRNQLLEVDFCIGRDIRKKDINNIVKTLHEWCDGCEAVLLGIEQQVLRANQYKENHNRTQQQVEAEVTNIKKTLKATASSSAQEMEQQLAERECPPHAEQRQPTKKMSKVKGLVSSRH

In the first assay the target is Flag‐CSN7A (human) (UniProt Q9UBW8). Kind of assay: pull-down; Flag‐pulldown: lysates of Flag‐CSN7A‐LiSa‐2 or Flag‐CSN7B‐LiSa‐2 cells on an ANTI‐FLAG M2 affinity column, washed with 20 column volumes of 1× TBS (50 mM Tris‐HCl, pH 7.4, 150 mM NaCl, 1 mM EDTA), eluted with Flag peptide (100 μg/mL); western blotting of the eluate. (In general: Immunoblotting shows a protein as a band on a membrane.)
On to “CSN7B (COP9 signalosome subunit 7B), endogenous (from UniProt Q9H9Q2 1-264)”, for which the binding entry was “no binding”.

The next assay has as its target Flag‐CSN7B (human) (UniProt Q9H9Q2). The assay is described as above.
Take CSN2 (from UniProt P61201 1-443): the binding result was “binds”.

Consider CSN3 (from UniProt Q9UNS2 1-423), for which the binding entry was “binds”.

Regarding CSN4 (from UniProt Q9BT78 1-406), the binding entry was “binds”.

Consider CSN5 (from UniProt Q92905 1-334), for which the binding entry is “binds”.

In the case of CSN6 (from UniProt Q7L5N1 1-327), the binding result is listed as “binds”.

In the case of CSN8 (from UniProt Q99627 1-209), the binding entry is reported as “binds”.

The values above are taken from PMC5095148.
